From PubChem BioAssay AID2685 (National Center for Advancing Translational Sciences (NCATS), 2010)
Some of the results follow. These are further read-outs of the screen, such as a control signal, another cell line or another target. No call is given for them. Most of these compounds were active or inconclusive in the main read-out, so they are no random draw. Words in brackets tell the shape of the fitted curve; partial curves, single points and poor fits give uncertain potencies.

Experiment: qHTS Assay for Lipid Storage Modulators in Drosophila S3 Cells;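 on cell number change: cells counted by Cell Tracker Red CMTPX staining in the red channel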
Conditions: BODIPY lipid droplet fluorescence, 18-24 h; for cell number change: measured here: cell count max response, cells fed with added oleic acid
Procedure, shortened: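 Drosophila S3 cells got compounds at several concentrations plus oleic acid (400 uM solution). Laser-scanning cytometry with 488 nm excitation read lipid droplets at 500-530 nm and cells at 575-640 nm. Percent activity was relative to 20 uM Triacsin C.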

[1] = measured here: lipid fluorescence (Fed channel) AC50, cells fed with added oleic acid
[2] = measured here: cell number channel AC50, cells fed with added oleic acid

| Structure (SMILES) | cell number change [%] | AC50 [1] | AC50 [2] |
| --- | --- | --- | --- |
| Cc1cc(Cl)ccc1OC(C)C(=O)O (centres undefined) | -14.7 | 461 nM [falling, full curve, poor fit] |  |
| CC(C)CCNC(=O)CN1C(=O)CN=C(c2ccccc2)c2ccccc21 | 14 |  |  |
| CCC1(c2ccccc2)C(=O)N(C)C(=O)N(C)C1=O | -11.3 |  | 4.61 nM [falling, full curve, poor fit] |
| CCC1=Nc2cc(C(=O)N3CCC4(CC3)OCCO4)ccc2Sc2ccccc21 | 13 | 3260 nM [falling, single point] |  |
| O=c1[nH]c2ccccc2n1C1CCN(CCCC(c2ccc(F)cc2)c2ccc(F)cc2)CC1 | -44.7 | 29100 nM [falling, partial curve] | 25900 nM [falling, partial curve] |
| CCCCOC(=O)C1=C(N)OC2=C(C(=O)CCC2)[C@]12C(=O)N(C)c1ccccc12 |  | 4110 nM [falling, partial curve, poor fit] |  |
| Cc1nc2c(-c3ccc(F)cc3)c(C)nn2c(C)c1CCC(=O)N1CCC2(CC1)OCCO2 | -29.1 | 6510 nM [rising, single point] |  |
| CC(NC1CCCCC1)C(O)C12CC3CC(CC(C3)C1)C2 (centres undefined) | -0.643 | 731 nM [falling, single point] |  |
| C[C@H](NC(=O)N1C[C@H]2C[C@@H](C1)c1cccc(=O)n1C2)C(=O)Nc1ccccc1F | 11.4 |  |  |
| O=C(C1CC(c2ccccc2O)=NO1)N1CCC2(CC1)OCCO2 (centres undefined) | 33.5 |  | 16400 nM [rising, single point] |
| CCN1CCN(Cc2cc(C(C)(C)C)c(O)c(C(C)(C)C)c2)CC1 | -34.7 | 1030 nM [falling, full curve] | 116 nM [falling, full curve, poor fit] |
| COc1ccccc1-n1c(O)c(/C=N/NC(=S)Nc2ccccc2)c(=O)[nH]c1=S | -25.2 | 4.61 nM [falling, full curve] |  |
| CCCS(=O)(=O)N1CCCC(C(=O)N2CCC3(CC2)OCCO3)C1 (centres undefined) | -41.8 |  | 20600 nM [falling, partial curve, poor fit] |
| O=C1NC(=O)C(CCc2ccncc2)(Cc2ccc3c(c2)OCO3)C(=O)N1CCc1ccccc1 (centres undefined) | 56.7 | 2060 nM [rising, partial curve] | 1840 nM [rising, full curve] |
| CN(C(=O)c1ccco1)C1(c2ccccc2Cl)CCCCC1=O (centres undefined) | -21.5 | 231 nM [falling, full curve, poor fit] | 146 nM [falling, full curve, poor fit] |
| COC(=O)C1=C(c2cccc(C#N)c2)C[C@@H]2CC[C@H]1N2C(=O)NCCNC(C)=O | 3.5 | 25900 nM [rising, single point] |  |
| Cc1ccccc1NC1=NCC(C)S1 (centres undefined) | -5.4 |  | 1840 nM [rising, partial curve, poor fit] |
| Cc1cc(/C=C2\C(=O)NC(=O)N(Cc3ccccc3)C2=O)c(C)n1C1CC1 | 29.1 |  |  |

| Structure (SMILES) | cell number change [%] | AC50 [1] | AC50 [2] |
| --- | --- | --- | --- |
| C[C@]12CCC(=O)C=C1CCC1C2CC[C@@]2(C)C1CC[C@@]2(O)CC#N (some centres undefined) | -32.5 |  | 23100 nM [falling, single point] |
| CCCN(CCC)CCNS(=O)(=O)c1ccc2c(c1)oc(=O)n2C |  |  | 29100 nM [falling, single point] |
| CC(C)c1ccc(N2C(=O)NC(=O)/C(=C/C=C/c3ccco3)C2=O)cc1 | -36.3 | 10300 nM [falling, partial curve] | 11600 nM [falling, partial curve] |
| COc1ccc(C2SCC(=O)Nc3c2c(C)nn3-c2ccccc2)cc1OC (centres undefined) | -10.7 | 580 nM [falling, full curve, poor fit] |  |
| OC1(c2cccnc2)CC2CCC(C1)N2Cc1nnnn1Cc1ccccc1 (centres undefined) | 4.97 | 7310 nM [rising, partial curve] |  |
| CC(=O)N(C1=NCCCS1)c1ccccc1F | 2.3 | 6510 nM [falling, single point] |  |
| O=C(Cc1ccccc1)OCCNC(=O)c1cccnc1 | 42.9 |  | 2910 nM [rising, partial curve] |
| CCCCn1c(O)c(C=NCCN2CCCCC2)c(=O)[nH]c1=O | 0.862 |  |  |
| O=C1CCN(C(=O)CNC(=O)Cc2ccccc2)CC1 | 23.9 | 29100 nM [rising, single point] |  |
| Cc1onc(-c2c(Cl)cccc2Cl)c1C(=O)Nc1ccc2c(C(F)(F)F)cc(=O)oc2c1 | 2.79 |  | 2910 nM [rising, single point] |
| COc1ccc([N+](=O)[O-])cc1N=Cc1c(O)n(CCc2ccccc2)c(=O)n(C(C)C)c1=O | 13.6 | 731 nM [rising, full curve, poor fit] |  |
| CCN(CCNc1ccc([N+](=O)[O-])c2cccnc12)S(=O)(=O)c1ccc(Cl)cc1 | -10.2 | 20.6 nM [rising, full curve] | 58 nM [rising, full curve, poor fit] |
| O=P(Oc1ccccc1)(Oc1ccccc1)N1CCN(c2ccc(F)cc2)CC1 | -9.29 |  | 6510 nM [falling, single point] |
| CC12CN3CC(C)(CN(C1)C3c1cccnc1)C2=O (centres undefined) | -7.36 | 6510 nM [falling, single point] |  |
| COC(=O)C1=C(N)Oc2c(c(=O)oc3ccccc23)[C@]12C(=O)N(C)c1ccccc12 | 3.27 | 1160 nM [rising, full curve] |  |
| O=C(CN1C(=O)CN=C(c2ccccc2Cl)c2cc(Cl)ccc21)NCc1ccco1 | -9.13 | 16400 nM [falling, single point] |  |
| Cn1c(O)c(C(c2ccncc2)c2c(O)n(C)c(=S)n(C)c2=O)c(=O)n(C)c1=S | -34.5 | 3660 nM [falling, full curve] | 130 nM [falling, full curve, poor fit] |
| CC(C)(C)c1ccc(CSc2cnn(C(C)(C)C)c(=O)c2Cl)cc1 | -38 | 5.8 nM [falling, full curve] | 73.1 nM [falling, full curve] |

Fetched by compound from above:

| Structure (SMILES) | cell number change [%] | AC50 [1] | AC50 [2] |
| --- | --- | --- | --- |
| C[C@]12CCC(=O)C=C1CCC1C2CC[C@@]2(C)C1CC[C@@]2(O)CC#N (some centres undefined) | -32.5 |  | 23100 nM [falling, single point] |
| O=C1CCN(C(=O)CNC(=O)Cc2ccccc2)CC1 | 23.9 | 29100 nM [rising, single point] |  |
| CC(C)c1ccc(N2C(=O)NC(=O)/C(=C/C=C/c3ccco3)C2=O)cc1 | -36.3 | 10300 nM [falling, partial curve] | 11600 nM [falling, partial curve] |
